For at least one entry, the source does not settle the construct or the ends of the probe. For part of these data: Negatives hold for the conditions tested.

The test system of data set [1] is MBP-RrMYB111 (Rosa rugosa cv. Zizhi). Description: competition with a labelled probe. The settings on record: EMSA (Beyotime Chemiluminescent kit): 2 µl of 1 mg/ml protein, biotin probe 10 µM, binding buffer, recombinant protein, protein details: N-terminal MBP (pMAL-c2X). A general note: A gel shift assay detects complexes by their altered migration in electrophoresis.

Data set [2] concerns MBP-RrMYB12 (Rosa rugosa cv. Zizhi). The data set can be described thus: competition with a labelled probe. As to conditions: EMSA (Beyotime Chemiluminescent kit): 2 µl of 1 mg/ml protein, biotin probe 10 µM, binding buffer, recombinant protein, protein details: N-terminal MBP (pMAL-c2X).
Data set [3] deals with MBP-RrMYB111 (Rosa rugosa cv. Zizhi). Description: EMSA. As to conditions: EMSA (Beyotime Chemiluminescent kit): 2 µl of 1 mg/ml protein, biotin probe 10 µM; binding buffer; recombinant protein; protein details: N-terminal MBP (pMAL-c2X); label: 5' biotin.
For data set [4], the system named is MBP-RrMYB12 (Rosa rugosa cv. Zizhi). The data set can be described thus: EMSA. The settings on record: EMSA (Beyotime Chemiluminescent kit): 2 µl of 1 mg/ml protein, biotin probe 10 µM; binding buffer; recombinant protein; protein details: N-terminal MBP (pMAL-c2X); label: 5' biotin.
The mark [5] stands for this setting: mutant competitor vs biotin probe.
The mark [6] stands for this setting: excess cold probe vs biotin probe.

Take “TCTAACAAAAATATCGTGTATTAAAAAAAGATTTTAATAAAAGATTTAGC (double strand) [RrFLS promoter mutant (no-competitive) probe]”: the binding result in data set [1] (setting [5]) and in data set [2] (setting [5]) was “no binding” in each case.
Consider “TCTAACAAAAATATCGTGTATTTAACTGAGATTTTAATAAAAGATTTAGC (double strand) [RrFLS promoter competitive probe (unlabeled)]”, for which the binding result in data set [1] (setting [6]) and in data set [2] (setting [6]) was “binds” in each case.
With “TCTAACAAAAATATCGTGTATTTAACTGAGATTTTAATAAAAGATTTAGC (double strand) [RrFLS promoter probe (biotin)]”, the binding result in data set [3] and in data set [4] was “binds” in each case.

Source of the values: publication PMC11685124.
